Some entries share one result that the patent states for a list of compounds.
Assays:
MiaPaCa-2 cells = assay: OGF/gemcitabine treatment in athymic nude mouse model (Example 5); type: in vivo, athymic nude mice; settings: after tumor cell inoculation
SCC-1 SCCHN cells = assay: SCC-1 SCCHN tumors in athymic nude mice (Examples 1c and 2); settings: after tumor cell inoculation

SMILES | latency time for measurable (62.5 mm^3) tumors (MiaPaCa-2 cells) [weeks] | latency to a visible tumor (MiaPaCa-2 cells) [days] | latency time for measurable (62.5 mm^3) tumors (SCC-1 SCCHN cells) [weeks] | latency to a visible tumor (SCC-1 SCCHN cells) [week]
Nc1ccn([C@@H]2O[C@H](CO)[C@@H](O)C2(F)F)c(=O)n1 [gemcitabine] | ≤ 2 | ≤ 10 | – | –
CC(=O)O[C@H]1C(=O)[C@@]2(C)[C@H]([C@H](OC(=O)c3ccccc3)[C@]3(O)C[C@H](OC(=O)[C@H](O)[C@@H](NC(=O)c4ccccc4)c4ccccc4)C(C)=C1C3(C)C)[C@]1(OC(C)=O)CO[C@@H]1C[C@@H]2O [paclitaxel] | – | – | ≤ 2 | ≤ 1

From patent US8003630B2, “Combinatorial therapies for the treatment of neoplasias using the opioid growth factor receptor” (The Penn State Research Foundation, priority 2004, dated 2011)
